This passage reports binding results from PMC13482807.

Amino acid sequences for entries named in this document (tags omitted).
UniProt P23696: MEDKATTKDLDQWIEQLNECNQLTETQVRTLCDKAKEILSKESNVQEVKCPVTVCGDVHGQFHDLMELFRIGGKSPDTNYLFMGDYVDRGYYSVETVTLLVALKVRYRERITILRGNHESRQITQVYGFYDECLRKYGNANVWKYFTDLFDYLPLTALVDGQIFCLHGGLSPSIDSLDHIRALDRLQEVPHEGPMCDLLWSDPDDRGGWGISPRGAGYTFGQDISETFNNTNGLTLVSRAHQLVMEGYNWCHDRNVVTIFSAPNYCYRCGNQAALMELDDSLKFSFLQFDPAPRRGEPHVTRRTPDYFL

The target in one assay is T1, Kibra (Kib) (Drosophila) (UniProt Q9VFG8).
T1 sequence: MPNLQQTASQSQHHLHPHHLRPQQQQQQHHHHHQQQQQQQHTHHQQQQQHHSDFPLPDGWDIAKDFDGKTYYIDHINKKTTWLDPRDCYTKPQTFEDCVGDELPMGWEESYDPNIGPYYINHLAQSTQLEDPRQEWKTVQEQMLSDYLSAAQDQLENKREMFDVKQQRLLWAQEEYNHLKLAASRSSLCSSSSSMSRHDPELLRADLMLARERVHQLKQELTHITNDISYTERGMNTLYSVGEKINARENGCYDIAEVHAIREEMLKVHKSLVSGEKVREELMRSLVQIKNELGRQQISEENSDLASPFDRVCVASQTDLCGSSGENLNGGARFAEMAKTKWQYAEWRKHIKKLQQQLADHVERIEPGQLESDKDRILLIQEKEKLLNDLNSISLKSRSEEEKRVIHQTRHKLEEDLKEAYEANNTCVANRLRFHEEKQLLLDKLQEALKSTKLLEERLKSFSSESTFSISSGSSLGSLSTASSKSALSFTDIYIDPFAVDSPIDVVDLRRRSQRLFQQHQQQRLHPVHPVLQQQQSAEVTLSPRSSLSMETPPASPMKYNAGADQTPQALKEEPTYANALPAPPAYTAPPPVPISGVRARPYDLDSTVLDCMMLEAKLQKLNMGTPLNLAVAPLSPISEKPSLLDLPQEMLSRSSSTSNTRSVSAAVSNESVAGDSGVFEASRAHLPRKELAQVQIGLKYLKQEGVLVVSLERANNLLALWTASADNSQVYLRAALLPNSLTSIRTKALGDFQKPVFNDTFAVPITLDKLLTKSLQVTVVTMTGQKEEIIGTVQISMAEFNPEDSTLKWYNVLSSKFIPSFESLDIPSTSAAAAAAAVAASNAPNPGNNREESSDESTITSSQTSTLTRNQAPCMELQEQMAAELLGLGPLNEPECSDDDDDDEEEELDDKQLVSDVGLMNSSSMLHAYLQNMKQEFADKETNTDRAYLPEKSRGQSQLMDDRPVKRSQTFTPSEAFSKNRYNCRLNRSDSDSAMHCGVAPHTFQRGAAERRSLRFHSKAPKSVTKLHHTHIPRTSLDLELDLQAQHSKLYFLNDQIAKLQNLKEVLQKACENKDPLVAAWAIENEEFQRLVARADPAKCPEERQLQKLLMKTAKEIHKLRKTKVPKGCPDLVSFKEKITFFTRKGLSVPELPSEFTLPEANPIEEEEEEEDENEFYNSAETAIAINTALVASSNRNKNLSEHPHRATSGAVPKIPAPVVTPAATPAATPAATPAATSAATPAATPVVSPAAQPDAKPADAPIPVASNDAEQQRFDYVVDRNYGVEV
As to the kind of experiment: co-IP; S2 cells transfected with the tagged constructs; lysis in 50 mM Tris pH 7.5, 150 mM NaCl, 1% Triton X-100, 10% glycerol, 1 mM EDTA with phosphatase and protease inhibitors; FLAG-tagged proteins on anti-FLAG M2 agarose 1-2 h at 4 °C, eluted with 3x FLAG peptide; immunoblot (Figures EV3G,H, EV5C-E, 5B-D).

Assay [1] has as its target Microtubule star (Mts), catalytic subunit of protein phosphatase 2A, wild type (Drosophila) (UniProt P23696). Described as above.
Assay [2] has the same target. As to the kind of experiment: co-IP; S2 cells transfected with the tagged constructs, with or without co-expressed Crb^intra, lysed 48 h after transfection; FLAG-tagged proteins purified on FLAG-agarose beads; immunoblot (Figure EV6). A general note: A western blot detects proteins with antibodies after separation by electrophoresis.

No constants are given. Whether binding was seen depends on the method and setting. In cells and extracts the contact can be indirect. Some binding calls cover weakened binding; strength is not graded here.

B1: Twins (Tws), PP2A B regulatory subunit (protein, UniProt P36872 1-499)
chain: MGRWGRQSPVLEPPDPQMQTTPPPPTLPPRTFMRQSSITKIGNMLNTAININGAKKPASNGEASWCFSQIKGALDDDVTDADIISCVEFNHDGELLATGDKGGRVVIFQRDPASKAANPRRGEYNVYSTFQSHEPEFDYLKSLEIEEKINKIRWLQQKNPVHFLLSTNDKTVKLWKVSERDKSFGGYNTKEENGLIRDPQNVTALRVPSVKQIPLLVEASPRRTFANAHTYHINSISVNSDQETFLSADDLRINLWHLEVVNQSYNIVDIKPTNMEELTEVITAAEFHPTECNVFVYSSSKGTIRLCDMRSAALCDRHSKQFEEPENPTNRSFFSEIISSISDVKLSNSGRYMISRDYLSIKVWDLHMETKPIETYPVHEYLRAKLCSLYENDCIFDKFECCWNGKDSSIMTGSYNNFFRVFDRNSKKDVTLEASRDIIKPKTVLKPRKVCTGGKRKKDEISVDCLDFNKKILHTAWHPEENIIAVAATNNLFIFQDKF
For the molecule B1, in the assay with Kibra (Kib) (Drosophila), the binding result was “no binding”.

B2: Kibra (Kib) (protein, UniProt Q9VFG8 1-1288)
chain: MPNLQQTASQSQHHLHPHHLRPQQQQQQHHHHHQQQQQQQHTHHQQQQQHHSDFPLPDGWDIAKDFDGKTYYIDHINKKTTWLDPRDCYTKPQTFEDCVGDELPMGWEESYDPNIGPYYINHLAQSTQLEDPRQEWKTVQEQMLSDYLSAAQDQLENKREMFDVKQQRLLWAQEEYNHLKLAASRSSLCSSSSSMSRHDPELLRADLMLARERVHQLKQELTHITNDISYTERGMNTLYSVGEKINARENGCYDIAEVHAIREEMLKVHKSLVSGEKVREELMRSLVQIKNELGRQQISEENSDLASPFDRVCVASQTDLCGSSGENLNGGARFAEMAKTKWQYAEWRKHIKKLQQQLADHVERIEPGQLESDKDRILLIQEKEKLLNDLNSISLKSRSEEEKRVIHQTRHKLEEDLKEAYEANNTCVANRLRFHEEKQLLLDKLQEALKSTKLLEERLKSFSSESTFSISSGSSLGSLSTASSKSALSFTDIYIDPFAVDSPIDVVDLRRRSQRLFQQHQQQRLHPVHPVLQQQQSAEVTLSPRSSLSMETPPASPMKYNAGADQTPQALKEEPTYANALPAPPAYTAPPPVPISGVRARPYDLDSTVLDCMMLEAKLQKLNMGTPLNLAVAPLSPISEKPSLLDLPQEMLSRSSSTSNTRSVSAAVSNESVAGDSGVFEASRAHLPRKELAQVQIGLKYLKQEGVLVVSLERANNLLALWTASADNSQVYLRAALLPNSLTSIRTKALGDFQKPVFNDTFAVPITLDKLLTKSLQVTVVTMTGQKEEIIGTVQISMAEFNPEDSTLKWYNVLSSKFIPSFESLDIPSTSAAAAAAAVAASNAPNPGNNREESSDESTITSSQTSTLTRNQAPCMELQEQMAAELLGLGPLNEPECSDDDDDDEEEELDDKQLVSDVGLMNSSSMLHAYLQNMKQEFADKETNTDRAYLPEKSRGQSQLMDDRPVKRSQTFTPSEAFSKNRYNCRLNRSDSDSAMHCGVAPHTFQRGAAERRSLRFHSKAPKSVTKLHHTHIPRTSLDLELDLQAQHSKLYFLNDQIAKLQNLKEVLQKACENKDPLVAAWAIENEEFQRLVARADPAKCPEERQLQKLLMKTAKEIHKLRKTKVPKGCPDLVSFKEKITFFTRKGLSVPELPSEFTLPEANPIEEEEEEEDENEFYNSAETAIAINTALVASSNRNKNLSEHPHRATSGAVPKIPAPVVTPAATPAATPAATPAATSAATPAATPVVSPAAQPDAKPADAPIPVASNDAEQQRFDYVVDRNYGVEV
Consider B2, for which the binding entry in assay [1] is on record as “binds”.

B3: Merlin (Mer) (protein, UniProt Q24564 1-635)
chain: MSPFGSKKNRSLSVRVSTFDSELEFKLEPRASGQDLFDLVCRTIGLRESWYFGLQYVDTRSNVSWLKMEKRVRDQRVELHASNNVYVFSFYAKFFPENVSEELIQEITQHLFFLQVKQSILSMDIYCRPEASVLLASYAVHVQYGPYDYETYKDGMLAGGELLPKGVTDQYQMTPEMWEERIKTWYMDHEPMTRDEVEMEYLKIAQDLDMYGVNYFPITNKNKTKLWLGVTSVGLNIYDERDKLTPKTTFQWNEIRHVSFDDKKFTIRLVDAKVSNFIFYSQDLHINKMILDLCKGNHDLYMRRRKPDTMEIQQMKAQAKEEKQRRQIERKKFIREKKLREKAEHERYELEKSMEHLQNEMRMANDALRRSEETKELYFEKSRVNEEQMQLTECKANHFKTEMDRLRERQMKIEREKHDLEKKIRDADFYVHQLTVENDKREAETEKLRKELICAKMAEREATARLLEFLNSGRKSSTDSLLTASSVSHAANTASSMAAISTPSLITSSSTNDLETAGGAELTTHSSHYLVQGDNSSGISDDFEPKEFILTDNEMEQITNEMERNHLDYLRNSKQVQSQLQTLRSEIAPHKIEENQSNLDILSEAQIKAGENKYSTLKKLKSGSTKARVAFFEEL
Consider B3, for which the binding result in assay [1] is on record as “no binding”.

B4: Expanded residues 1-468 (Ex^1-468) (domain or fragment, UniProt Q07436 1-468)
chain: MRAFCTVSAPLEVCASSAEQLSPGSRFLALRLLGQQQPKTLYFLVDAKSRVREVYTQTCLHFATQGMLDTELFGLAVLIDGEYMFADPESKLSKYGPKSWRSSHTHGLDANGRPLLELHFRVQFYIESPFMLKDETSRHNYYLQLRHNILQRDLPREQAEQALVFLAGLALQADLGDAPPGTSNSKDDSGEETSASPSNGGRGLSATTTLPKISKRANERMLRLSTYVASTSKRETIPLPPSLPPNGADYYRIEDYLPSGLHTPWARSAMRACHREHLGMATAEAELLYIQQACSLHETINAHTYRMRLAKSEQGSGSAWFVVYAKGIKILGGESTNSSSNPETTTFLWPNITKLSFERKKFEIRSGESRITLYAASDEKNKLLLTLCKDTHQWSMKLAARLKEVSKREEEEAAESQRLHASYACSRSLLLPYKSKNEQRISVISSTSSNTTSGIVSDRVHSEDELEI
B4: the binding result in assay [2] was “binds”.
